Test results reported in US20210079089A1 (SURROZEN OPERATING, published 2021).
Changes are numbered by the printed parent chain. These are yes or no findings as the source states them, for the method shown. Some entries that bind do so weakly or less than the wild type.

Protein sequences, listed by entry. Tags and fused reporters are not part of them.
UniProt O75197: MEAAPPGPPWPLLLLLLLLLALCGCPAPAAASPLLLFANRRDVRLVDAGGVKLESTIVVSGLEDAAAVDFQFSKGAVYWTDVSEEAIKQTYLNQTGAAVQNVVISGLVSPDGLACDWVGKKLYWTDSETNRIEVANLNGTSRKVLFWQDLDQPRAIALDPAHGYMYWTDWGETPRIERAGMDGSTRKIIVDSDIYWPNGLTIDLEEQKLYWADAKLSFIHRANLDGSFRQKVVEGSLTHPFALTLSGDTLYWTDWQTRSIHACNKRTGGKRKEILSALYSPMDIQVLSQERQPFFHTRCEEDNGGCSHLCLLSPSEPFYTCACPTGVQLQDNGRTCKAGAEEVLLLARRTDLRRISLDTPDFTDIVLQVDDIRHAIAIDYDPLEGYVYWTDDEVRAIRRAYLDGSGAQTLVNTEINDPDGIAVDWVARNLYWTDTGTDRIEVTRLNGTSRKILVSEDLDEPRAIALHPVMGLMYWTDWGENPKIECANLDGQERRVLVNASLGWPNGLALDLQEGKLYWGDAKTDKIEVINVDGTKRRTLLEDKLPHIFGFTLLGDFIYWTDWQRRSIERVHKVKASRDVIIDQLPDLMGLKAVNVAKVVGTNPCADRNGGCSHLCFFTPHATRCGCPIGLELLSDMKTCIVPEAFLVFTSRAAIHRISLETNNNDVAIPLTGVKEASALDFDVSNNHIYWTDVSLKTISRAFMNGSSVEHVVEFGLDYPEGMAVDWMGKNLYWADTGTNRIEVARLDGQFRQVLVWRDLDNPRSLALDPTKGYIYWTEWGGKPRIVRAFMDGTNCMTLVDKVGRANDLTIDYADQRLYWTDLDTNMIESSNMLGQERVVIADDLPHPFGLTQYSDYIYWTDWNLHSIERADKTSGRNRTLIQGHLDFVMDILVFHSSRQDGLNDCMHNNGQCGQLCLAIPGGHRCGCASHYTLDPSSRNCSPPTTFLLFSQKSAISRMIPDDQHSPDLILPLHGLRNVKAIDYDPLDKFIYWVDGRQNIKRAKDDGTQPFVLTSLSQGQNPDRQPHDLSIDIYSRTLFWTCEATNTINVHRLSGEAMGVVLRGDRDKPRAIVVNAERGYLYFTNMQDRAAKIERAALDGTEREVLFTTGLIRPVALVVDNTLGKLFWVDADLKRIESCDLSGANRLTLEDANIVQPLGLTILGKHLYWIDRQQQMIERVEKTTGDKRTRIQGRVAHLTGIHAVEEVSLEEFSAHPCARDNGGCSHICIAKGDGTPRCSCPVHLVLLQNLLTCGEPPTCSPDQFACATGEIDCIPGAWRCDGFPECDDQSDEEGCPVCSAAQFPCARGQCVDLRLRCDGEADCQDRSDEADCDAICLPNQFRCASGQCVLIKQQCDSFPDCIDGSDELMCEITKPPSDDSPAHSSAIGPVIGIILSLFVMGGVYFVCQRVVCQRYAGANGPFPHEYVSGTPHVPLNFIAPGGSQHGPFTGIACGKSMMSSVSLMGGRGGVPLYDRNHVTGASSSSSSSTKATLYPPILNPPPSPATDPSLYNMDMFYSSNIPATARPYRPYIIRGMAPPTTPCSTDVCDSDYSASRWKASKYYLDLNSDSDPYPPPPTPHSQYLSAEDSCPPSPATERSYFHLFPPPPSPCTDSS

T1: LRP6e1e2 (UniProt O75581 20-630, limits assumed, C-terminally biotinylated)
T1 construct: domain: E1E2; also called LRP6 E1E2 domains
T1 sequence (looked up): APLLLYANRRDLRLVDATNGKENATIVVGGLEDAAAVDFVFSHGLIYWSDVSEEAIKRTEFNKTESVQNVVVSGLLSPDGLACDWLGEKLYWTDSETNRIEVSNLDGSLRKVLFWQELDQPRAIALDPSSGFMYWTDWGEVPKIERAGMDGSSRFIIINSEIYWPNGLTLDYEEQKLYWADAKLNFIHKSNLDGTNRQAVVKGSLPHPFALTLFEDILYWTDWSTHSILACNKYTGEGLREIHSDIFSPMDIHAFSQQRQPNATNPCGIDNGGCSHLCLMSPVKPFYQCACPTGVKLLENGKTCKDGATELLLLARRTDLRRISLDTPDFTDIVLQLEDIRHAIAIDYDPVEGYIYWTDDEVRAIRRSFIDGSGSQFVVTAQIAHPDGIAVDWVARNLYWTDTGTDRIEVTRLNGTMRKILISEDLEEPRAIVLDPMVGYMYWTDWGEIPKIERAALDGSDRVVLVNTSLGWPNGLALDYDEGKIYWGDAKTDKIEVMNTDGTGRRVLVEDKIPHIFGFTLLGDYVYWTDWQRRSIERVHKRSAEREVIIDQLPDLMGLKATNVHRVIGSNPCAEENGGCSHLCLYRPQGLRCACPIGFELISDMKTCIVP

B1: 009S-D03 (VHH)
VHH: DVQLVESGGGLVQPGGSLRLSCAAPGSIFSDGAMGWYRQAPGKQRELVAVISGGRTGYADFVKGRFTISRDNGKNTVNLQMNRLEPEDTAVYFCNTYPFPIYKKGYPFWGQGTQVTVSS
B2: 001S-F11 (VHH)
VHH: QVQLVESGGGLVQAGGSLRLSCAASGRTFSSYAMSWFRQAPGKEREFVAVIGRSGGIKYYADSVKGRFTISRDNTINTVYLQMNNLTPEDTAIYYCATRRPFNSYNTEQSYDSWGRGTLVTVSS
B3: 009S-F03 (VHH)
VHH: B2 VHH with Q1D
B4: 009S-A03 (VHH)
VHH: QVQLVESGGGLVQAGDSLRLSCVVSGRTFSVYGVGWFRQAPGKEREVVAAVSASGGYTWYADSVKGRFTISRDNAKSTAFLQMNSLQPEDTAVYYCKAAPRWGGATAYWGQGTQVTVSS
B5: 009S-G02 (VHH)
VHH: AVQLVESGGGLVQAGGSLRLSCGVSGSIFSIYAMGWYRQAPGKERELVAVITSGGKTVYADSVKGRFTITEDAAKNTVYLQMNSLKAEDTAVYYCYADSRSSWYDEYLEHWGRGTLVTVSS
B6: 009S-H03 (VHH)
VHH: B5 VHH with A1D, G16E, G23A, V24A, Y32N, A33T, R113Q
B7: 009S-A04 (VHH)
VHH: AVQLVESGGGLVQAGGSLRLSCAASGRTLSAYDMGWFRQAPGKERELVGGIRWSGGTTLYPDSVKGRFTISRDNAKNTVYLQMNSLKPEDSAVYYCYARTVIGGFGAFRAHWGQGTQVTVSS
B8: 009S-D04 (VHH)
VHH: QVKLEESGGGLVQPGGSLRLSCETSATIVSIYRINWYRQAPGKQREWVAGITSSGRTIYADSVKGRFTISRDNAKNTVYLQMNNLKPEDTAVYYCNAASTVTAWPYYGPDYWGKGTLVTVSS
B9: 008S-D01 (VHH)
VHH: DVQLVESGGGLVQPGGSLRLSCTSSANINSIETLGWYRQAPGKQRELIANMRGGGYMKYAGSLKGRFTMSTESAKNTMYLQMNSLKPEDTAVYYCYVKLRDDDYVYRGQGTQVTVSS

These binders were tested against T1, LRP6e1e2 (assay: Octet BLI or BIAcore SPR).

binding | Binder
binds | B1
binds | B2
binds | B3
binds | B4
binds | B5
binds | B6
binds | B7

These binders were tested against T1, LRP6e1e2 (assay: Octet BLI).
Method: Binding kinetics of antibody fragments to LRP5 extracellular domain (LRP5 ECD) and/or LRP6 extracellular domain (LRP6 ECD) protein targets was determined by bio-layer interferometry (BLI) using Octet Red 96 (PALL ForteBio, Fremont, Calif.) instruments at 30° C., 1000 rpm with streptavidin (SA) biosensors. C-terminal biotinylated LRP ECD recombinant protein was diluted to 20 nM in the running buffer (PBS, 0.05% Tween-20, 0.5% BSA, pH 7.2) and captured to the SA biosensor until coupling length reached 0.2 nm. Following capture of the LRP5 or LRP6, the SA biosensor with captured biotinylated-LRP5 or biotinylated LRP6 was dipped into wells containing the relevant antibody fragment at […] (0, 1.37, 4.12, 12.4, 37, 111.1, 333.3, 1000 nM) in running buffer, plus a well with only running buffer as a reference channel. KD was determined by global fitting, 1:1 binding model according to manufacturer recommended settings.

binding | Binder
binds | B1
binds | B3
binds | B4
binds | B5
binds | B6
binds | B7
binds | B8

The binders below were run against LRP5 (UniProt O75197) (assay: Octet BLI or BIAcore SPR).

binding | Binder
binds | B9

These binders were tested against T1, LRP6e1e2 (assay: Confirmed Binding column of Table 1A).

binding | Binder
binds | B1
binds | B2
binds | B3
binds | B4
binds | B5
binds | B6
binds | B7

The binders below were run against LRP5 (UniProt O75197) (assay: Confirmed Binding column of Table 1A).

binding | Binder
binds | B9
